Assay results published in paper PMC6538723.
These are yes or no findings as the source states them, for the method shown. Binding seen in cells or lysates may run through a third protein. Some entries that bind do so weakly or less than the wild type.

Tests used:
[1] = target: HA-p53 (UniProt P04637); test: co-IP; Hek293 cells co-transfected with 3 ug HA-p53, 3 ug Myc-MDM2C464A and increasing amounts (0, 3, 6, 9 ug) of EGFP-ZCCHC10 plasmid; 24 h post transfection; IP with rabbit anti-HA, WB with anti-HA, anti-Myc and anti-EGFP
[2] = target: p53, endogenous wild-type protein in Beas-2b cells (human (endogenous in Beas-2b)) (UniProt P04637); test: co-IP; endogenous proteins in Beas-2b cells; lysates precipitated with the indicated antibody, immune complexes analysed by WB
[3] = target: HA-p53 (UniProt P04637); test: co-IP; overexpressed proteins in Hek293 cells co-transfected with HA-p53 and Myc-Zh10 (or Myc-mtZh10); lysates precipitated with the indicated antibody, WB

With “EGFP-ZCCHC10 (from UniProt Q8TBK6-1 1-192)” the binding [1] was “binds”.
In the case of “ZCCHC10 (zinc finger CCHC-type containing 10), endogenous protein in Beas-2b cells (from UniProt Q8TBK6-1 1-192)”, the binding [2] is reported as “binds”.
“Myc-ZCCHC10 (from UniProt Q8TBK6-1 1-192)” was tested, and the binding [3] was “binds”.
